Data as given in patent EP1707568A2, “A pharmaceutical composition for use in the treatment of ovarian cancer in a human afflicted therewith” (SMITHKLINE BEECHAM CORPORATION, priority 1991, dated 1992).
The name of at least one read-out is uncertain.

Experiment: Hang-bag stability of topotecan diluted in saline or dextrose
Format: physicochemical
Settings: 24 hours
Method: Topotecan diluted in saline (10 ug/ml or 500 ug/ml) or dextrose (6.7 ug/ml or 330 ug/ml) is stable in a hang-bag for 24 hours with at least 95% recovery.

Question: Which recovery (dextrose, 330 ug/ml) does the source give for `CC[C@@]1(O)C(=O)OCc2c1cc1n(c2=O)Cc2cc3c(CN(C)C)c(O)ccc3nc2-1` [Topotecan, (S)-9-dimethylaminomethyl-10-hydroxycamptothecin] here?
Answer: The recovery was “at least 95%”.

Question: And the recovery (saline, 500 ug/ml)?
Answer: Its recovery is “at least 95%”.
